{"source": "PubChem BioAssay AID493014", "about": "(National Center for Advancing Translational Sciences (NCATS), 2011)", "note": "Hit rate of the full screen: of about 340,000 compounds, about 170 (0.05%) were called active. The inconclusive results got no clear call from the source; some entries with a clear call stand among them for comparison. Calls follow the shape of the dose curve; as a rule, active = well fitted inhibition curve with a large enough effect in the signal ratio, with a control signal flat (not every such curve was filed as active); inconclusive = small, poorly fitted or top-dose-only effect, or effect the other way, or a change in a side signal; inactive = flat fitted curve, though single readings scatter; the % refers to the signal ratio. Potencies of inconclusive entries are doubtful fits and often do not repeat. Potency is read from the fitted curve at half-maximal effect.", "data": [{"test": "qHTS Assay to Find Inhibitors of Chronic Active B-Cell Receptor Signaling;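 as to activity change, negative = inhibition: plate controls were basal doxycycline-induced cells for no effect and cells given 10 µM MG132 for full effect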", "settings": "ABC-DLBCL IkBa-CBG/CBR reporter, luminescence ratio (green luciferase fused to IkBa over red control in TMD8 lymphoma cells), 4 h; activity change, negative = inhibition: at 46.1 µM (top of the series)", "method_in_brief": "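TMD8 human ABC-DLBCL cells with doxycycline-inducible IκBα–green luciferase fusion and unfused red luciferase, in 0.5% FBS medium; compounds up to 46 uM, 4 h at 37C. Green/red luminescence ratio, filter-overlap corrected, fitted to concentration-response curves.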", "values": [{"smiles": "O=C(NC1CC1)c1cc(=S)[nH]c2ccccc12", "activity change, negative = inhibition": "inactive"}, {"smiles": "COc1cc(OC)cc(-c2c(-c3cccs3)c3cc(Br)ccc3n2C)c1", "activity change, negative = inhibition": "inactive"}, {"smiles": "COc1ccc(CNc2nc(C)c([N+](=O)[O-])c(C)c2C#N)cc1", "activity change, negative = inhibition": "inconclusive: 0.0736%"}, {"smiles": "CC(C)n1cnnc1SCC(=O)NC(=O)c1ccccc1", "activity change, negative = inhibition": "inactive"}, {"smiles": "NC(=O)C1CCN(C(=O)c2ccc3c(=O)n(Cc4ccco4)c(SCC(=O)c4ccc(F)cc4)nc3c2)CC1", "activity change, negative = inhibition": "inactive"}, {"smiles": "CCN(CCNCC(O)COc1ccccc1C(C)C)c1cccc(C)c1", "note": "(centres undefined)", "Potency": "inconclusive: 25.1 µM [falling, single point]"}, {"smiles": "Cc1cccc(NC(=O)Cn2nnc3sc4c(c3c2=O)CC(C)(C)OC4)c1", "activity change, negative = inhibition": "inconclusive: -0.89%"}, {"smiles": "O=C(c1ccc(F)cc1)N1CCN2C(=O)c3ccccc3C12c1ccccc1", "note": "(centres undefined)", "activity change, negative = inhibition": "inconclusive: -1.4%"}, {"smiles": "CC(C)c1ccc(NC(=O)CN2C(=O)c3cccc4cccc2c34)cc1", "activity change, negative = inhibition": "inactive"}, {"smiles": "C=CCOc1c(Br)cc(CNc2ccc(NC(=O)C(C)C)cc2)cc1OCC", "Potency": "inconclusive: 16.4 µM [falling, partial curve]"}, {"smiles": "CCOc1ccccc1CN1CCC(n2nccc2NC(=O)C2CCCC2)CC1", "Potency": "inconclusive: 22.4 µM [falling, single point]"}, {"smiles": "O=C(NCc1cc(C(F)(F)F)ccc1Cl)c1cccc2c1C(=O)c1ccc(N3CCOCC3)cc1S2(=O)=O", "activity change, negative = inhibition": "inactive"}, {"smiles": "Cc1nnc(NC(=O)CSc2nnc(CC(=O)Nc3ccccc3Cl)n2C)s1", "activity change, negative = inhibition": "inconclusive: 15.2%"}, {"smiles": "O=S(=O)(c1ccc(Cl)c(Cl)c1)c1snnc1-c1ccccc1", "Potency": "inconclusive: 16.4 µM [falling, partial curve]"}, {"smiles": "COc1ccc(Cl)cc1NC(=O)Nc1ccc(C(=O)N2CCCC2)cc1", "activity change, negative = inhibition": "inactive"}, {"smiles": "CC(C)(C)CNC(=O)c1cccc2c1C(=O)c1ccc(N3CCCC3)cc1S2(=O)=O", "activity change, negative = inhibition": "inactive"}, {"smiles": "Cc1ccc(S(=O)(=O)Nc2c(C)cc(C)nc2Cl)cc1", "activity change, negative = inhibition": "inconclusive: -1.59%"}, {"smiles": "CSc1ccc(CN(C)Cc2cc(=O)oc3c(C)c(C)ccc23)cc1", "activity change, negative = inhibition": "inactive"}, {"smiles": "O=C(CP(=O)(c1ccccc1)c1ccccc1)Nc1nc2ccccc2s1", "activity change, negative = inhibition": "inconclusive: -4.45%"}, {"smiles": "CCCN(CCC)S(=O)(=O)c1ccc(C(=O)O)cc1", "activity change, negative = inhibition": "inconclusive: -0.545%"}, {"smiles": "Cc1cc(N(C)C)ccc1N=Nc1ccc2ncccc2c1", "activity change, negative = inhibition": "inconclusive: -13.8%"}, {"smiles": "COc1ccc(C)cc1NC(=O)CN1C(=O)COc2ccc(S(=O)(=O)N3CCCCCC3)cc21", "activity change, negative = inhibition": "inactive"}, {"smiles": "Cc1ccc(C(=O)Nc2ccc3c(c2)OCO3)cc1S(=O)(=O)N1CCCCC1", "activity change, negative = inhibition": "inconclusive: -2.4%"}, {"smiles": "O=C(CCn1cnc(-c2ccccc2)c1-c1ccccc1)N/N=C/c1ccccc1O", "Potency": "inconclusive: 25.9 µM [falling, single point]"}, {"smiles": "CCC(NC(=O)c1ccccc1NC(=O)c1ccccc1)C(=O)NNC(=O)c1cccnc1", "note": "(centres undefined)", "activity change, negative = inhibition": "inconclusive: 0.152%"}, {"smiles": "COc1ccccc1-n1c(CNC(=O)c2ccc(S(=O)(=O)N3CCOCC3)cc2)n[nH]c1=S", "Potency": "inconclusive: 2.31 µM [falling, full curve]"}, {"smiles": "CCOc1ccc(/C=N/n2cc(-c3ccccc3)[nH]c2=S)cc1", "Potency": "inconclusive: 6.31 µM [falling, single point]"}, {"smiles": "COc1ccc(OC)c(-c2csc(NC(=O)Cc3ccccc3F)n2)c1", "activity change, negative = inhibition": "inactive"}, {"smiles": "O=C(COc1ccc(F)cc1)Nc1nccs1", "activity change, negative = inhibition": "inconclusive: 3.1%"}, {"smiles": "COc1ccc2cc(CN(C(=O)Nc3ccccc3)C3CCCC3)c(=O)[nH]c2c1", "activity change, negative = inhibition": "inconclusive: 3.7%"}, {"smiles": "COC(=O)c1scc(C)c1NC(=O)c1ccccc1F", "activity change, negative = inhibition": "inconclusive: -6.47%"}, {"smiles": "N#Cc1c(-c2ccccc2)nc(SCC(=O)N(c2ccccc2)c2ccccc2)[nH]c1=O", "Potency": "inconclusive: 8.2 µM [rising, partial curve, poor fit]"}, {"smiles": "O=C(NCc1noc2ccccc12)Nc1ccc(F)cc1F", "Potency": "inconclusive: 17.8 µM [falling, partial curve, poor fit]"}, {"smiles": "CCOC(=O)c1nc(Nc2ccccc2C)c2ccccc2n1", "activity change, negative = inhibition": "inconclusive: 17.3%"}, {"smiles": "Nc1nc(-c2ccccc2)c(-c2ccccc2)n1N", "Potency": "inconclusive: 22.4 µM [falling, single point]"}, {"smiles": "O=C(Nc1ccc(N2CCCC2)cc1)c1cccc(Cl)c1Cl", "Potency": "inconclusive: 31.6 µM [falling, single point]"}, {"smiles": "COc1cccc(NC(=O)Cn2c(=O)n(-c3ccccc3)c(=O)c3sccc32)c1", "activity change, negative = inhibition": "inactive"}, {"smiles": "COc1ccc(CCn2c(-c3ccc(OC)cc3)nc3c(c(=O)c4ccccc4n3C)c2=O)cc1", "Potency": "inconclusive: 4.47 µM [falling, partial curve]"}, {"smiles": "CCOc1ccccc1NC(=O)CSc1nc(=O)n(Cc2ccccn2)c2c1CCC2", "Potency": "inconclusive: 4.11 µM [falling, partial curve, poor fit]"}, {"smiles": "CC(C)OC(=O)/C(=C\\c1ccccc1)NC(=O)c1ccccc1", "activity change, negative = inhibition": "inactive"}, {"smiles": "Clc1ccc(C2=C3CCCCn4c(-c5ccccc5)c[n+](c43)C2)cc1", "activity change, negative = inhibition": "inconclusive: 7.18%"}, {"smiles": "COc1cccc2c3c(c(C)nc12)CCN3c1ccccc1", "activity change, negative = inhibition": "inconclusive: -17.3%"}, {"smiles": "Cc1ccc(NC(=O)CN(C)CC(=O)Nc2cccc(F)c2)cc1S(=O)(=O)N1CCCCCC1", "Potency": "inconclusive: 5.01 µM [falling, partial curve, poor fit]"}, {"smiles": "Cc1c(CCC(=O)N[C@@H](CC(C)C)C(=O)O)c(=O)oc2cc3oc4c(c3cc12)CCCC4", "Potency": "inconclusive: 10 µM [falling, partial curve, poor fit]"}, {"smiles": "CCCCCCCC(=O)NNC(=O)c1c(O)c2ccccc2n(CCC)c1=O", "activity change, negative = inhibition": "inactive"}, {"smiles": "COc1ccc(CCN(C)C(=O)c2cc(-c3ccccc3)nc3ccccc23)cc1OC", "activity change, negative = inhibition": "inconclusive: -8.48%"}, {"smiles": "CCCNC(=O)c1c(N)n(-c2cccc(OC)c2)c2nc3ccccc3nc12", "activity change, negative = inhibition": "inconclusive: 16.3%"}, {"smiles": "O=C(COc1cccc2c1CCN(Cc1ccc(Cl)cc1)C2=O)N1CCOCC1", "Potency": "inconclusive: 7.94 µM [falling, partial curve]"}, {"smiles": "Cc1ccc(S(=O)(=O)N2CCOCC2)cc1C(=O)N(C)CCOc1ccc(Cl)cc1", "activity change, negative = inhibition": "inconclusive: 6.65%"}]}]}
